Data on 1 substance can be found in patent US20160024421A1, “IONIC LIQUIDS CONTAINING QUATERNARY PHOSPHONIUM CATIONS AND CARBOXYLATE ANIONS, AND THEIR USE AS LUBRICANT ADDITIVES” (UT-Battelle, LLC, priority 2014, published 2016).

A short description of the data set: Ball-on-flat reciprocating tribological bench test (wear rate). As to conditions: 1.65 wt % IL in PAO vs 1.67 wt % AP in PAO; 100 N, 100° C., 10 Hz, 1000 m; total wear rate (ball and plate).

Some results are limits rather than exact numbers.

On to “trihexyltetradecylphosphonium 2-ethylhexanoate [[P66614][C7H15COO]b]”, for which the “wear reduction versus commercial amine-phosphate AW additive” value was greater than 56%.
